No constants are given. Whether binding was seen depends on the method and setting. Binding seen in cells or lysates may run through a third protein. These calls come from enrichment with a bait or labelling near it, and not all partners need be listed.

The chains behind the UniProt entries cited, without tags or fusion partners. Where a name states a change or a piece, a line headed by the entry shows the natural chain unless it says otherwise. Residues count along the entry.
UniProt P0DTC8, 16-121: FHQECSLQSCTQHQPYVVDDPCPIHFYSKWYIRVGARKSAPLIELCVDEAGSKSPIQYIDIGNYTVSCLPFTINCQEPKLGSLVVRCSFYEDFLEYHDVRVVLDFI
UniProt Q13283, whole entry, stated change not applied: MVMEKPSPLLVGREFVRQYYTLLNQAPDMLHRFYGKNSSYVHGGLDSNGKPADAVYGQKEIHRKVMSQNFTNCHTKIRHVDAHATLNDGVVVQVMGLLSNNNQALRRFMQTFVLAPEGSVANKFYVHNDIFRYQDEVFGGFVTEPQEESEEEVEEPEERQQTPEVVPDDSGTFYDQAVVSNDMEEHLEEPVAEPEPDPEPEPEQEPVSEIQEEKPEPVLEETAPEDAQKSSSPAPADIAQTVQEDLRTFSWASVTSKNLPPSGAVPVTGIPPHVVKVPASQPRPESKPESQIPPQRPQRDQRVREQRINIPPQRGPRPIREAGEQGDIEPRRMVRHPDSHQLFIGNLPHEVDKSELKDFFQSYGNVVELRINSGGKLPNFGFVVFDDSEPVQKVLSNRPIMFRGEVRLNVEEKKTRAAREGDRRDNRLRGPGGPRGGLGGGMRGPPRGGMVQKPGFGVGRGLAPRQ

From article doi:10.1101/2020.09.03.282103 come the findings set out here.

Common to all, as to test: proximity labelling
Assay [1] addresses ORF8_Ct (SARS-CoV-2) (UniProt P0DTC8).
Assay [2] deals with NSP9 (SARS-CoV-2) (UniProt P0DTD1).
Assay [3] deals with NSP3_Nt wild type (SARS-CoV-2) (UniProt P0DTD1).
The target in assay [4] is NSP8 (SARS-CoV-2) (UniProt P0DTD1).
The target of assay [5] is NSP6 (SARS-CoV-2) (UniProt P0DTD1).
For assay [6], the target named is NSP7 (SARS-CoV-2) (UniProt P0DTD1).
For assay [7], the target named is G3BP1 (miniTurbo host bait) (UniProt Q13283).
Assay [8] concerns the target NSP16 (SARS-CoV-2) (UniProt P0DTD1).

Regarding HLA-C (from UniProt P10321 25-366), the binding result in assay [1] is reported as “binds”.
For HLA-B (from UniProt P01889 25-362), the binding entry in assay [1] is listed as “binds”.
For the substance LSM14B (from UniProt Q9BX40 1-385), the binding result in assay [2] is reported as “binds”.
Turning to FXR2 (from UniProt P51116 1-673), the binding result in assay [2] and in assay [3] was “binds” each time.
With HECTD1 (from UniProt Q9ULT8 1-2610), in assay [4], the binding result is reported as “binds”.
For PSMD2 (from UniProt Q13200 1-908), in assay [4], the binding result was “binds”.
With LSM14A (from UniProt Q8ND56 1-463), the binding entry in assay [2] is “binds”.
As to ARF1 (from UniProt P84077 1-181), in assay [5], the binding entry was “binds”.
Consider “UBA1 (from UniProt P22314 1-1058) (enzyme)”, for which, in assay [4], the binding entry is “binds”.
With “NPEPPS (from UniProt P55786 1-919) (enzyme)”, the binding result in assay [6] is listed as “binds”.
Consider “CALR (calreticulin) (from UniProt P27797 18-417)”, for which, in assay [1], the binding entry is “binds”.
For the substance UBAP2L (from UniProt Q14157 1-1087), the binding result in assay [7] was “binds”.
Consider HLA-A (from UniProt P04439 25-365), for which the binding entry in assay [1] is given as “binds”.
MEOIC (from UniProt A2RUB1 1-952): the binding result in assay [8] is listed as “binds”.
On to MYOF (from UniProt Q9NZM1 1-2061), for which, in assay [5], the binding result is recorded as “binds”.
EIF4ENIF1 (from UniProt Q9NRA8 1-985): the binding result in assay [2] is listed as “binds”.
In the case of HERC1 (from UniProt Q15751 1-4861), the binding entry in assay [4] is given as “binds”.
